# Measurements from the supplement of paper PMC10032668.
# Protein sequences, listed by entry. Tags and fused reporters are not part of them.
# ATXN2, Q99700, UniProt Q99700, whole entry: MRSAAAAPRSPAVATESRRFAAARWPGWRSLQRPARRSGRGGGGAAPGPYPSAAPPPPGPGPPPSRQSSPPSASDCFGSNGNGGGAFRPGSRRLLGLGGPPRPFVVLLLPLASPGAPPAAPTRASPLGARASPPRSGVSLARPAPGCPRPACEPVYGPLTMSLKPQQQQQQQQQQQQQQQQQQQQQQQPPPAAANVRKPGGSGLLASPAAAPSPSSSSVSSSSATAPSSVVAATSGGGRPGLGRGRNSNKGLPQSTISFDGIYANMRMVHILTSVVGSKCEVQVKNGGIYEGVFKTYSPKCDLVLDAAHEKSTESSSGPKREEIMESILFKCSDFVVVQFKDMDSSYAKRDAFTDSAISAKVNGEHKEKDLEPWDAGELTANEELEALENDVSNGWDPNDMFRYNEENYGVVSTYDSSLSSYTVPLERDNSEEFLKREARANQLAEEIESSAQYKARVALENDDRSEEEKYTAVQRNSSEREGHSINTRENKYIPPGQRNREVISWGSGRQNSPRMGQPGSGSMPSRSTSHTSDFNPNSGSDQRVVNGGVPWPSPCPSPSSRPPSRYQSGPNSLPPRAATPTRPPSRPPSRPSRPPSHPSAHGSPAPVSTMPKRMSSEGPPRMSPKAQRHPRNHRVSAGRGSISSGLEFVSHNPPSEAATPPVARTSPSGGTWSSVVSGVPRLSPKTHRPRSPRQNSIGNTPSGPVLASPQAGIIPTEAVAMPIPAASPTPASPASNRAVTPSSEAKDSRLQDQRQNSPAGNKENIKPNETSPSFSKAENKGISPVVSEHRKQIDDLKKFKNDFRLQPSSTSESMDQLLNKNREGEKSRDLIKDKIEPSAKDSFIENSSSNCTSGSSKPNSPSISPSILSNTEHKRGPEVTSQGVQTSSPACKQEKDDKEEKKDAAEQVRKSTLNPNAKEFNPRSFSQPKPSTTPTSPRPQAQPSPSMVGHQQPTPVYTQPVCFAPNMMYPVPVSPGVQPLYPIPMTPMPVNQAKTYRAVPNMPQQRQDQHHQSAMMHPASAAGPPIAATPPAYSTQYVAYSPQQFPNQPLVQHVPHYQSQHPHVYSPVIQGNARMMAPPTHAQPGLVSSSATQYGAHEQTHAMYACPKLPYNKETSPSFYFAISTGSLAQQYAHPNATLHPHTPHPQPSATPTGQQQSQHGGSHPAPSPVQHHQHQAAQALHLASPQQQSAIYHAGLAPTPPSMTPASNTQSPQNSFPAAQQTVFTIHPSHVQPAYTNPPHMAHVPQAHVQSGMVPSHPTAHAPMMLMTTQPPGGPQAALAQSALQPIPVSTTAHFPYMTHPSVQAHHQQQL
# BUB3, O43684, UniProt O43684, whole entry: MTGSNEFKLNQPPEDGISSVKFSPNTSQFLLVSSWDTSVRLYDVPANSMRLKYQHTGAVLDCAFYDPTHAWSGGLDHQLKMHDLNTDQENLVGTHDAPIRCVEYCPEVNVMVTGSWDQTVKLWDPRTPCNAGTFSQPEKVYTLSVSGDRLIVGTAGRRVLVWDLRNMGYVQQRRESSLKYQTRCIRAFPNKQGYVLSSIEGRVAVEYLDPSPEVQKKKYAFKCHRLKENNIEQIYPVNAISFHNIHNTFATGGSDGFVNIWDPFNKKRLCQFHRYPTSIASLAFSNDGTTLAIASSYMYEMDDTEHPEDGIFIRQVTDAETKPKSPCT
# CRIPT, Q9P021, UniProt Q9P021, whole entry: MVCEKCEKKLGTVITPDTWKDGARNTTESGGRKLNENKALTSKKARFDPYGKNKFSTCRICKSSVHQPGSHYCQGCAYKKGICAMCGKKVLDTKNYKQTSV
# DNAJB1, P25685, UniProt P25685, whole entry: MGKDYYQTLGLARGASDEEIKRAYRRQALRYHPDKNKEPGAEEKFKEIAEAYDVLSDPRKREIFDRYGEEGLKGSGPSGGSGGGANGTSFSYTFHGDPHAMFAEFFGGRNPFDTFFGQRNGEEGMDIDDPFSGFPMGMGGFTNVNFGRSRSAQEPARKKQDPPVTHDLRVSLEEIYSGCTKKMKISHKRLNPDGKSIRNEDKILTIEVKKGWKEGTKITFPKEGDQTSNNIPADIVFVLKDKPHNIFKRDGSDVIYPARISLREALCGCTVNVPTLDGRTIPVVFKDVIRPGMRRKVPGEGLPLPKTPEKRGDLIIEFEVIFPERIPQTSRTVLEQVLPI
# ± gives the standard deviation of the averaged measurements. The list shows a part of the results. Only hits are listed; about a third recur on repeated control peptides.
# Experiments:
# Experiment in all cases: PRISMA enrichment of interactor (LFQ) in peptide spot vs all other peptide spots (log2 fold change); higher = stronger / more specific binding of the interactor to the peptide
# ACAA1, P09110 = biological target: ACAA1, P09110
# Experimental: (§1)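 PRISMA: 221 full-length sORF-encoded peptides (3-15 aa), plus SOS1/GLUT1 control peptides, were spot-synthesized on cellulose membranes in triplicate. Membranes were incubated with HEK293T lysate, and bound proteins were identified by LC-MS/MS with LFQ. Enrichment is the log2 fold change versus all other peptide spots; only significant interactors are listed (cutoff c=6, x0=2.8).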
# ACAD11, Q709F0 = biological target: ACAD11, Q709F0
# Experimental: as §1
# ALKBH2, Q6NS38 = biological target: ALKBH2, Q6NS38
# Experimental: as §1
# ALKBH5, Q6P6C2 = biological target: ALKBH5, Q6P6C2
# Experimental: as §1
# ALYREF, Q86V81 = biological target: ALYREF, Q86V81
# Experimental: as §1
# ANKRD30B, Q9BXX2 = biological target: ANKRD30B, Q9BXX2
# Experimental: as §1
# ATXN2, Q99700 = biological target: ATXN2, Q99700
# Experimental: as §1
# ATXN2L, Q8WWM7 = biological target: ATXN2L, Q8WWM7
# Experimental: as §1
# BAIAP2, Q9UQB8 = biological target: BAIAP2, Q9UQB8
# Experimental: as §1
# BCKDK, O14874 = biological target: BCKDK, O14874
# Experimental: as §1
# BUB3, O43684 = biological target: BUB3, O43684
# Experimental: as §1
# C19orf53, Q9UNZ5 = biological target: C19orf53, Q9UNZ5
# Experimental: as §1
# C1orf131, Q8NDD1 = biological target: C1orf131, Q8NDD1
# Experimental: as §1
# C8orf33, Q9H7E9 = biological target: C8orf33, Q9H7E9
# Experimental: as §1
# CC2D1A, Q6P1N0 = biological target: CC2D1A, Q6P1N0
# Experimental: as §1
# CCDC137, Q6PK04 = biological target: CCDC137, Q6PK04
# Experimental: as §1
# CCDC59, Q9P031 = biological target: CCDC59, Q9P031
# Experimental: as §1
# CHID1, Q9BWS9 = biological target: CHID1, Q9BWS9
# Experimental: as §1
# CHTOP, Q9Y3Y2 = biological target: CHTOP, Q9Y3Y2
# Experimental: as §1
# CIRBP, Q14011 = biological target: CIRBP, Q14011
# Experimental: as §1
# CKMT1A, P12532 = biological target: CKMT1A, P12532
# Experimental: as §1
# COA7, Q96BR5 = biological target: COA7, Q96BR5
# Experimental: as §1
# CPSF7, Q8N684 = biological target: CPSF7, Q8N684
# Experimental: as §1
# CRIPT, Q9P021 = biological target: CRIPT, Q9P021
# Experimental: as §1
# CSNK1A1, P48729 = biological target: CSNK1A1, P48729
# Experimental: as §1
# CSNK1E, P49674 = biological target: CSNK1E, P49674
# Experimental: as §1
# CSRP2, Q16527 = biological target: CSRP2, Q16527
# Experimental: as §1
# CXorf56, Q9H5V9 = biological target: CXorf56, Q9H5V9
# Experimental: as §1
# DAZAP1, Q96EP5 = biological target: DAZAP1, Q96EP5
# Experimental: as §1
# DDX1, Q92499 = biological target: DDX1, Q92499
# Experimental: as §1
# DDX47, Q9H0S4 = biological target: DDX47, Q9H0S4
# Experimental: as §1
# DDX49, Q9Y6V7 = biological target: DDX49, Q9Y6V7
# Experimental: as §1
# DDX6, P26196 = biological target: DDX6, P26196
# Experimental: as §1
# DECR2, Q9NUI1 = biological target: DECR2, Q9NUI1
# Experimental: as §1
# DERPC, P0CG12 = biological target: DERPC, P0CG12
# Experimental: as §1
# DNAJA3, Q96EY1 = biological target: DNAJA3, Q96EY1
# Experimental: as §1
# DNAJB1, P25685 = biological target: DNAJB1, P25685
# Experimental: as §1
# DNAJB4, Q9UDY4 = biological target: DNAJB4, Q9UDY4
# Experimental: as §1
# EDF1, O60869 = biological target: EDF1, O60869
# Experimental: as §1
# EEFSEC, P57772 = biological target: EEFSEC, P57772
# Experimental: as §1
# EGLN1, Q9GZT9 = biological target: EGLN1, Q9GZT9
# Experimental: as §1
# EHHADH, Q08426 = biological target: EHHADH, Q08426
# Experimental: as §1
# EMG1, Q92979 = biological target: EMG1, Q92979
# Experimental: as §1
# EWSR1, Q01844 = biological target: EWSR1, Q01844
# Experimental: as §1
# FAM98A, Q8NCA5 = biological target: FAM98A, Q8NCA5
# Experimental: as §1
# FBL, P22087 = biological target: FBL, P22087
# Experimental: as §1
# FKBP2, P26885 = biological target: FKBP2, P26885
# Experimental: as §1
# FTSJ3, Q8IY81 = biological target: FTSJ3, Q8IY81
# Experimental: as §1
# FUBP1, Q96AE4 = biological target: FUBP1, Q96AE4
# Experimental: as §1
# FUS, P35637 = biological target: FUS, P35637
# Experimental: as §1
# GABARAPL2, P60520 = biological target: GABARAPL2, P60520
# Experimental: as §1
# GSK3B, P49841 = biological target: GSK3B, P49841
# Experimental: as §1
# GTPBP1, O00178 = biological target: GTPBP1, O00178
# Experimental: as §1
# HMGB2, P26583 = biological target: HMGB2, P26583
# Experimental: as §1
# HNRNPA0, Q13151 = biological target: HNRNPA0, Q13151
# Experimental: as §1
# HNRNPA1, P09651 = biological target: HNRNPA1, P09651
# Experimental: as §1
# HNRNPA2B1, P22626 = biological target: HNRNPA2B1, P22626
# Experimental: as §1
# HNRNPA3, P51991 = biological target: HNRNPA3, P51991
# Experimental: as §1
# HP1BP3, Q5SSJ5 = biological target: HP1BP3, Q5SSJ5
# Experimental: as §1
# IBA57, Q5T440 = biological target: IBA57, Q5T440
# Experimental: as §1
binder,measurement,setting,value
MTEYWVPEI [RCBTB2],PRISMA enrichment of interactor (log2),"ACAA1, P09110",4.95
same,PRISMA enrichment of interactor (log2),"ACAD11, Q709F0",5.78
same,PRISMA enrichment of interactor (log2),"ALKBH2, Q6NS38",5.94
same,PRISMA enrichment of interactor (log2),"ALKBH5, Q6P6C2",5.14
same,PRISMA enrichment of interactor (log2),"ALYREF, Q86V81",5.91 ± 0.29
same,PRISMA enrichment of interactor (log2),"ANKRD30B, Q9BXX2",4.15
same,PRISMA enrichment of interactor (log2),"ATXN2, Q99700",5.42
same,PRISMA enrichment of interactor (log2),"ATXN2L, Q8WWM7",5.61
same,PRISMA enrichment of interactor (log2),"BAIAP2, Q9UQB8",6.75
same,PRISMA enrichment of interactor (log2),"BCKDK, O14874",6.55
same,PRISMA enrichment of interactor (log2),"BUB3, O43684",5.04
same,PRISMA enrichment of interactor (log2),"C19orf53, Q9UNZ5",7.48
same,PRISMA enrichment of interactor (log2),"C1orf131, Q8NDD1",4.01
same,PRISMA enrichment of interactor (log2),"C8orf33, Q9H7E9",4.41
same,PRISMA enrichment of interactor (log2),"CC2D1A, Q6P1N0",8.46
same,PRISMA enrichment of interactor (log2),"CCDC137, Q6PK04",7.41
same,PRISMA enrichment of interactor (log2),"CCDC59, Q9P031",5.59
same,PRISMA enrichment of interactor (log2),"CHID1, Q9BWS9",4.2
same,PRISMA enrichment of interactor (log2),"CHTOP, Q9Y3Y2",5.9
same,PRISMA enrichment of interactor (log2),"CIRBP, Q14011",4.99
same,PRISMA enrichment of interactor (log2),"CKMT1A, P12532",8.41
same,PRISMA enrichment of interactor (log2),"COA7, Q96BR5",7.26
same,PRISMA enrichment of interactor (log2),"CPSF7, Q8N684",6.77
same,PRISMA enrichment of interactor (log2),"CRIPT, Q9P021",4.19
same,PRISMA enrichment of interactor (log2),"CSNK1A1, P48729",7.77
same,PRISMA enrichment of interactor (log2),"CSNK1E, P49674",7.73
same,PRISMA enrichment of interactor (log2),"CSRP2, Q16527",6.92
same,PRISMA enrichment of interactor (log2),"CXorf56, Q9H5V9",7.4
same,PRISMA enrichment of interactor (log2),"DAZAP1, Q96EP5",6.59
same,PRISMA enrichment of interactor (log2),"DDX1, Q92499",5.5
same,PRISMA enrichment of interactor (log2),"DDX47, Q9H0S4",5.33
same,PRISMA enrichment of interactor (log2),"DDX49, Q9Y6V7",5.9
same,PRISMA enrichment of interactor (log2),"DDX6, P26196",5.55
same,PRISMA enrichment of interactor (log2),"DECR2, Q9NUI1",6.14
same,PRISMA enrichment of interactor (log2),"DERPC, P0CG12",7.12
same,PRISMA enrichment of interactor (log2),"DNAJA3, Q96EY1",5.55
same,PRISMA enrichment of interactor (log2),"DNAJB1, P25685",7.24
same,PRISMA enrichment of interactor (log2),"DNAJB4, Q9UDY4",4.85
same,PRISMA enrichment of interactor (log2),"EDF1, O60869",5.85
same,PRISMA enrichment of interactor (log2),"EEFSEC, P57772",6.25
same,PRISMA enrichment of interactor (log2),"EGLN1, Q9GZT9",6.14
same,PRISMA enrichment of interactor (log2),"EHHADH, Q08426",8.14
same,PRISMA enrichment of interactor (log2),"EMG1, Q92979",7.27
same,PRISMA enrichment of interactor (log2),"EWSR1, Q01844",5.89
same,PRISMA enrichment of interactor (log2),"FAM98A, Q8NCA5",5.13
same,PRISMA enrichment of interactor (log2),"FBL, P22087",5.54
same,PRISMA enrichment of interactor (log2),"FKBP2, P26885",5.32
same,PRISMA enrichment of interactor (log2),"FTSJ3, Q8IY81",5.26
same,PRISMA enrichment of interactor (log2),"FUBP1, Q96AE4",5.83
same,PRISMA enrichment of interactor (log2),"FUS, P35637",5.83
same,PRISMA enrichment of interactor (log2),"GABARAPL2, P60520",7.53
same,PRISMA enrichment of interactor (log2),"GSK3B, P49841",6.72
same,PRISMA enrichment of interactor (log2),"GTPBP1, O00178",7.27
same,PRISMA enrichment of interactor (log2),"HMGB2, P26583",5.15
same,PRISMA enrichment of interactor (log2),"HNRNPA0, Q13151",5.93
same,PRISMA enrichment of interactor (log2),"HNRNPA1, P09651",5.47
same,PRISMA enrichment of interactor (log2),"HNRNPA2B1, P22626",4.33
same,PRISMA enrichment of interactor (log2),"HNRNPA3, P51991",5.77
same,PRISMA enrichment of interactor (log2),"HP1BP3, Q5SSJ5",5.93
same,PRISMA enrichment of interactor (log2),"IBA57, Q5T440",7.49

# In a second layout: results already given
binder	measurement	setting	value
MTEYWVPEI [RCBTB2]	PRISMA enrichment of interactor (log2)	DAZAP1, Q96EP5	6.59
same	PRISMA enrichment of interactor (log2)	FBL, P22087	5.54
same	PRISMA enrichment of interactor (log2)	HMGB2, P26583	5.15
